Measurements reported in ChEMBL document CHEMBL1138743, “Discovery of novel heteroarylazoles that are metabotropic glutamate subtype 5 receptor antagonists with anxiolytic activity” (J Med Chem, 2004).

The chains behind the UniProt entries cited, without tags or fusion partners.
UniProt P41594, whole entry: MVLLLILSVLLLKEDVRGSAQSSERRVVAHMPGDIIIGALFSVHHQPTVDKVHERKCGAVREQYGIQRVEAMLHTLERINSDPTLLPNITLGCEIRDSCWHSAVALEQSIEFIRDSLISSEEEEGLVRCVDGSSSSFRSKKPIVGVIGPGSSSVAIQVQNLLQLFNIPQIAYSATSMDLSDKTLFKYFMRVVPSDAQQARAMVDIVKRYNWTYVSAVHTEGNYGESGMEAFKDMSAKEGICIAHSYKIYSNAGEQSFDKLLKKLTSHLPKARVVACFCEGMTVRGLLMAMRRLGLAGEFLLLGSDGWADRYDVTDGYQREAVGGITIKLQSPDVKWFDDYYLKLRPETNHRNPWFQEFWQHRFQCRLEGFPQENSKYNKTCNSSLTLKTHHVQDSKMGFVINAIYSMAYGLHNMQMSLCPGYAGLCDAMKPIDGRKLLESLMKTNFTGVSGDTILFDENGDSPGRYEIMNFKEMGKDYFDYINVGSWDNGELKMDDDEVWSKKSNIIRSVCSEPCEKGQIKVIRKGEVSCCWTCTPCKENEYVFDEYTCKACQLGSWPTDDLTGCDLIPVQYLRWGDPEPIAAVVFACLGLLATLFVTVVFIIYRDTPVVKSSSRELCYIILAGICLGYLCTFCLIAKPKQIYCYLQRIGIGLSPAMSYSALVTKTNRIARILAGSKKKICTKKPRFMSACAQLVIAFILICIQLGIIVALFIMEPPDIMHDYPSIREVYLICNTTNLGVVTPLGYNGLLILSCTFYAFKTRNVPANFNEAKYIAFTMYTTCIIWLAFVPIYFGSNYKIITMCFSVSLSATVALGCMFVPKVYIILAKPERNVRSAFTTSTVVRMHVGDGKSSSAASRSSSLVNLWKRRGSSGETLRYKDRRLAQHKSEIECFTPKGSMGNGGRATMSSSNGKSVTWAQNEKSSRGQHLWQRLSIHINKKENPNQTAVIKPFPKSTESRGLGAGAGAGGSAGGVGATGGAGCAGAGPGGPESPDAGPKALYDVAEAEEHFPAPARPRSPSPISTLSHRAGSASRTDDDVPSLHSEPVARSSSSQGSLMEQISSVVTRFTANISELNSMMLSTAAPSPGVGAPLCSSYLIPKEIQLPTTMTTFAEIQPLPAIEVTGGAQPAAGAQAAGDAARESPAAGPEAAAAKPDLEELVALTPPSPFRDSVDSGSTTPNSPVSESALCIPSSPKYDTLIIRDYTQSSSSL

Target: Metabotropic glutamate receptor 5 (Homo sapiens, UniProt P41594)
Assay: Inhibitory concentration towards human glutamate receptor 5 in calcium flux assay
Assay type: functional
How it was run: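 Ltk cells stably expressing human recombinant mGlu5; glutamate as agonist. Cytosolic Ca2+ changes read by fura-2 fluorescence in an automated format. IC50 given as geometric mean with limits and replicate number.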

Which IC50 does the source give for `N#Cc1cccc(-c2nc(-c3ccccn3)no2)c1` here?
Its IC50 is 100 nM.
